Results are given in words; binding and its absence hold for the method and conditions named. Some results given as binding are weak or reduced against the parent protein; the word gives no strength.
Assays:
[1] = biological target: T1, human TL1A (Fitzgerald, Prod. #30R-AT070) (human) (UniProt O95150); experiment: ELISA
T1 sequence (biotinylated with EZ-Link Sulfo-NHS-LC-Biotin where used as soluble antigen, looked up): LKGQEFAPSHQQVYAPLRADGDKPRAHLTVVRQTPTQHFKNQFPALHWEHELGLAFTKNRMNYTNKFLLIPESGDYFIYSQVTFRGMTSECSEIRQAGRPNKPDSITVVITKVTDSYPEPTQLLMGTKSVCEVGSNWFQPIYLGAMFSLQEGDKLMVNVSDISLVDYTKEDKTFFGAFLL

[2] = biological target: T1, human TL1A (Fitzgerald, Prod. #30R-AT070) (human); experiment: filter lift assay
[3] = biological target: T1, human TL1A (Fitzgerald, Prod. #30R-AT070) (human); experiment: capture filter lift assay
[4] = biological target: T1, human TL1A (Fitzgerald, Prod. #30R-AT070) (human); experiment: capture lift assay, biotinylated antigen
[5] = biological target: T1, human TL1A (Fitzgerald, Prod. #30R-AT070) (human); experiment: filter lift assay, 8 nM biotinylated human TL1A
[6] = biological target: T1, human TL1A (Fitzgerald, Prod. #30R-AT070) (human); experiment: ELISA, captured Fab, soluble biotinylated antigen
[7] = biological target: T1, human TL1A (Fitzgerald, Prod. #30R-AT070) (human); experiment: Fab ELISA on immobilised antigen
[8] = biological target: T1, human TL1A (Fitzgerald, Prod. #30R-AT070) (human); experiment: ELISA, coated human TL1A, Fab titrated
[9] = biological target: T1, human TL1A (Fitzgerald, Prod. #30R-AT070) (human); experiment: capture lift screen and Fab ELISA on immobilised antigen

Measured: binding

B1: chimeric 5C3D11 Fab (Fab, V domains shown)
VH: EVQLQQSGAELVKPGASVKLSCTASGFDIQDTYMHWVKQRPEQGLEWIGRIDPASGHTKYDPKFQVKATITTDTSSNTAYLQLSSLTSEDTAVYYCSRSGGLPDVWGAGTTVTVSS
VL: QIVLSQSPAILSASPGEKVTMTCRASSSVSYMYWYQQKPGSSPKPWIYATSNLASGVPDRFSGSGSGTSYSLTISRVEAEDAATYYCQQWSGNPRTFGGGTKLEIK
not listed: [7] | [8] | [9]
binds: all other assays above

B2: humanized 12835 Fab (Fab, V domains shown)
VH: QVQLVQSGAEVKKPGASVKLSCKASGFDIQDTYMHWVRQAPGQGLEWMGRIDPASGHTKYDPKFQVRVTMTTDTSTSTVYMELSSLRSEDTAVYYCSRSGGLPDVWGQGTTVTVSS
VL: EIVLTQSPGTLSLSPGERVTMSCRASSSVSYMYWYQQKPGQAPRPWIYATSNLASGVPDRFSGSGSGTDYTLTISRLEPEDFAVYYCQQWSGNPRTFGGGTKLEIK
binds: [1] | [7] | [8] | [6] | [9]
